# In the supplement of paper PMC8728848:
# The list shows a part of the results.
# B1: Blon2355mut (Bifidobacterium longum) (protein)
# chain: MVQEPTLEWHVIPEPTNVEPLVGTCSLPLSGTVVEQRGADDAEAVFARQLVDDIKRVCGGRWQVASGEVQREVTLRTSPSLDDWSYVLEVSPDGVVITGSGFEGVRDGVQTLRQIIRQIGLTIPCMVIRDRPAFSTRGYYLDVTRGRVPSMAWLKSWVDRLCFYKYNQFQLYIEHTFQFNGLSEVWRGADPLTSSDILELDSYCAARGIELVPSVSTFGHHYTALRTRQLRDLGEFPEDADRPFSLIERMTHHTLNITDERSYEFSTSLIDELMPLFRSRKFNICANETFDLGKGRSKQESAKRGVGAMYADFVERLCRHVDDRGHDVMVWADVALEHPEIIDTLPKNITWLNWQYEPNVDDGTTAALADAGATQMVCPAVWCWNALIPRIDDAWNNITRMARHGRAHDVSGMLVTDWGDFGHVNDPRMSVPGMIFGAQQSWNPDAELSEVDMLSRISTIEYGDHTGSVVGALRGASAKGGFSWSDLVTYLELDDGRGGCNTEIVRVMGCLEAYRNDLPQSGQARLADARVSMLRTLRDSILAGRELNGKLDDAAKDITQLLRVAGDPSSAAVWSLAIDGQRLLNRVGLALLAAHGVVRQDEAGIDAAKLADELECWTEQYSRLWHEVSRQSELARIQHVVWRAADVLRSI
# Key:
# Assay in all cases: glycan array binding signal (z-score within array); higher = stronger binding
# Conditions in all cases: glycan notation: IUPAC condensed, linker removed
# [1] = biological target: Neu5Ac(a2-3)Gal(b1-3)[Fuc(a1-4)]GlcNAc(b1-3)Gal(b1-3)[Fuc(a1-4)]GlcNAc
# How it was run: (§1)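 Glycan array binding is given as a within-array Z-score, which can be read as non-binding when negative. The arrays, 3228 of them, came from the Consortium for Functional Glycomics database and were retained only where the protein sequence was available. Z-scores were averaged across arrays of the same protein sequence at different concentrations or buffers and across linkers.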
# [2] = biological target: Neu5Ac(a2-3)Gal(b1-3)[Fuc(a1-4)]GlcNAc(b1-3)Gal(b1-4)[Fuc(a1-3)]GlcNAc
# How it was run: as §1
# [3] = biological target: Neu5Ac(a2-3)Gal(b1-3)[GlcNAc(b1-6)]GalNAc
# How it was run: as §1
# [4] = biological target: Neu5Ac(a2-3)Gal(b1-3)[Neu5Ac(a2-6)]GalNAc
# How it was run: as §1
# [5] = biological target: Neu5Ac(a2-3)Gal(b1-3)[Neu5Ac(a2-6)]GlcNAc(b1-3)[Fuc(a1-3)[Gal(b1-4)]GlcNAc(b1-6)]Gal(b1-4)Glc
# How it was run: as §1
# [6] = biological target: Neu5Ac(a2-3)Gal(b1-3)]Neu5Ac(a2-3)Gal(b1-4)]GlcNAc
# How it was run: as §1
# [7] = biological target: Neu5Ac(a2-3)Gal(b1-4)Glc
# How it was run: as §1
# [8] = biological target: Neu5Ac(a2-3)Gal(b1-4)GlcNAc
# How it was run: as §1
# [9] = biological target: Neu5Ac(a2-3)Gal(b1-4)GlcNAc(b1-2)Man
# How it was run: as §1
# [10] = biological target: Neu5Ac(a2-3)Gal(b1-4)GlcNAc(b1-2)Man(a1-3)[GlcNAc(b1-4)][Neu5Ac(a2-3)Gal(b1-4)GlcNAc(b1-2)Man(a1-6)]Man(b1-4)GlcNAc(b1-4)GlcNAc
# How it was run: as §1
# [11] = biological target: Neu5Ac(a2-3)Gal(b1-4)GlcNAc(b1-2)Man(a1-3)[Neu5Ac(a2-3)Gal(b1-4)GlcNAc(b1-2)Man(a1-6)]Man(b1-4)GlcNAc(b1-4)GlcNAc
# How it was run: as §1
# [12] = biological target: Neu5Ac(a2-3)Gal(b1-4)GlcNAc(b1-2)Man(a1-3)[Neu5Ac(a2-3)Gal(b1-4)GlcNAc(b1-2)Man(a1-6)]Man(b1-4)GlcNAc(b1-4)[Fuc(a1-6)]GlcNAc
# How it was run: as §1
# [13] = biological target: Neu5Ac(a2-3)Gal(b1-4)GlcNAc(b1-2)Man(a1-3)[Neu5Ac(a2-6)Gal(b1-4)GlcNAc(b1-2)Man(a1-6)]Man(b1-4)GlcNAc(b1-4)GlcNAc
# How it was run: as §1
# [14] = biological target: Neu5Ac(a2-3)Gal(b1-4)GlcNAc(b1-2)[Neu5Ac(a2-3)Gal(b1-4)GlcNAc(b1-2)]Man(a1-6)[Neu5Ac(a2-3)Gal(b1-4)GlcNAc(b1-2)Man(a1-3)][GlcNAc(b1-4)]Man(b1-4)GlcNAc(b1-4)GlcNAc
# How it was run: as §1
# [15] = biological target: Neu5Ac(a2-3)Gal(b1-4)GlcNAc(b1-2)[Neu5Ac(a2-3)Gal(b1-4)GlcNAc(b1-4)]Man(a1-3)[GlcNAc(b1-4)][Neu5Ac(a2-3)Gal(b1-4)GlcNAc(b1-2)[Neu5Ac(a2-3)Gal(b1-4)GlcNAc(b1-6)]Man(a1-6)]Man(b1-4)GlcNAc(b1-4)GlcNAc
# How it was run: as §1
# [16] = biological target: Neu5Ac(a2-3)Gal(b1-4)GlcNAc(b1-2)[Neu5Ac(a2-3)Gal(b1-4)GlcNAc(b1-4)]Man(a1-3)[GlcNAc(b1-4)][Neu5Ac(a2-3)Gal(b1-4)GlcNAc(b1-4)Man(a1-6)]Man(b1-4)GlcNAc(b1-4)GlcNAc
# How it was run: as §1
# [17] = biological target: Neu5Ac(a2-3)Gal(b1-4)GlcNAc(b1-2)[Neu5Ac(a2-3)Gal(b1-4)GlcNAc(b1-6)]Man(a1-6)[Neu5Ac(a2-3)Gal(b1-4)GlcNAc(b1-2)Man(a1-3)]Man(b1-4)GlcNAc(b1-4)GlcNAc
# How it was run: as §1
# [18] = biological target: Neu5Ac(a2-3)Gal(b1-4)GlcNAc(b1-3)Gal
# How it was run: as §1
# [19] = biological target: Neu5Ac(a2-3)Gal(b1-4)GlcNAc(b1-3)Gal(b1-3)GlcNAc
# How it was run: as §1
# [20] = biological target: Neu5Ac(a2-3)Gal(b1-4)GlcNAc(b1-3)Gal(b1-4)GlcNAc
# How it was run: as §1
# [21] = biological target: Neu5Ac(a2-3)Gal(b1-4)GlcNAc(b1-3)Gal(b1-4)GlcNAc(b1-2)Man(a1-3)[Neu5Ac(a2-3)Gal(b1-4)GlcNAc(b1-3)Gal(b1-4)GlcNAc(b1-2)Man(a1-6)]Man(b1-4)GlcNAc(b1-4)GlcNAc
# How it was run: as §1
# [22] = biological target: Neu5Ac(a2-3)Gal(b1-4)GlcNAc(b1-3)Gal(b1-4)GlcNAc(b1-3)Gal(b1-4)GlcNAc
# How it was run: as §1
# [23] = biological target: Neu5Ac(a2-3)Gal(b1-4)GlcNAc(b1-3)Gal(b1-4)GlcNAc(b1-3)Gal(b1-4)GlcNAc(b1-2)Man(a1-3)[Neu5Ac(a2-3)Gal(b1-4)GlcNAc(b1-3)Gal(b1-4)GlcNAc(b1-3)Gal(b1-4)GlcNAc(b1-2)Man(a1-6)]GalNAc
# How it was run: as §1
# [24] = biological target: Neu5Ac(a2-3)Gal(b1-4)GlcNAc(b1-3)Gal(b1-4)GlcNAc(b1-3)GalNAc
# How it was run: as §1
# [25] = biological target: Neu5Ac(a2-3)Gal(b1-4)GlcNAc(b1-3)Gal(b1-4)GlcNAc(b1-3)[Neu5Ac(a2-3)Gal(b1-4)GlcNAc(b1-3)Gal(b1-4)GlcNAc(b1-6)]GalNAc
# How it was run: as §1
# [26] = biological target: Neu5Ac(a2-3)Gal(b1-4)GlcNAc(b1-3)Gal(b1-4)GlcNAc(b1-6)[Gal(b1-3)]GalNAc
# How it was run: as §1
# [27] = biological target: Neu5Ac(a2-3)Gal(b1-4)GlcNAc(b1-3)Gal(b1-4)[Fuc(a1-3)]GlcNAc
# How it was run: as §1
# [28] = biological target: Neu5Ac(a2-3)Gal(b1-4)GlcNAc(b1-3)GalNAc
# How it was run: as §1
# [29] = biological target: Neu5Ac(a2-3)Gal(b1-4)GlcNAc(b1-3)[Neu5Ac(a2-3)Gal(b1-4)GlcNAc(b1-6)]GalNAc
# How it was run: as §1
# [30] = biological target: Neu5Ac(a2-3)Gal(b1-4)GlcNAc(b1-6)GalNAc
# How it was run: as §1
binder,measurement,setting,value
B1,glycan array binding signal (z-score),[1],-0.494
same,glycan array binding signal (z-score),[2],1.67
same,glycan array binding signal (z-score),[3],0.393
same,glycan array binding signal (z-score),[4],-0.544
same,glycan array binding signal (z-score),[5],4.03
same,glycan array binding signal (z-score),[6],0.621
same,glycan array binding signal (z-score),[7],3.29
same,glycan array binding signal (z-score),[8],-0.297
same,glycan array binding signal (z-score),[9],1.97
same,glycan array binding signal (z-score),[10],-0.775
same,glycan array binding signal (z-score),[11],0.367
same,glycan array binding signal (z-score),[12],-0.94
same,glycan array binding signal (z-score),[13],-0.951
same,glycan array binding signal (z-score),[14],-0.915
same,glycan array binding signal (z-score),[15],-0.925
same,glycan array binding signal (z-score),[16],-0.034
same,glycan array binding signal (z-score),[17],-1.1
same,glycan array binding signal (z-score),[18],-1.09
same,glycan array binding signal (z-score),[19],-0.299
same,glycan array binding signal (z-score),[20],-0.31
same,glycan array binding signal (z-score),[21],-0.289
same,glycan array binding signal (z-score),[22],-0.098
same,glycan array binding signal (z-score),[23],1.09
same,glycan array binding signal (z-score),[24],-0.082
same,glycan array binding signal (z-score),[25],1.42
same,glycan array binding signal (z-score),[26],-0.53
same,glycan array binding signal (z-score),[27],0.142
same,glycan array binding signal (z-score),[28],-0.411
same,glycan array binding signal (z-score),[29],2.06
same,glycan array binding signal (z-score),[30],-1.01

# Pulled one by one from above (2):
binder,measurement,setting,value
B1,glycan array binding signal (z-score),[13],-0.951
same,glycan array binding signal (z-score),[5],4.03
